# Laboratory results published in PubChem BioAssay AID445 (National Center for Advancing Translational Sciences (NCATS), 2006).
# The other results are listed elsewhere or left out. Shown are side measurements of this screen, not its main read-out; they come without a call. Compounds called inactive in the main read-out are mostly missing here. Words in brackets tell the shape of the fitted curve; partial curves, single points and poor fits give uncertain potencies.
# Assay: IkB Signaling
# Conditions: ABC-DLBCL IkBa-CBG/CBR dual luciferase ratio (green luciferase fused to IkBa over red control in OCI-Ly3 lymphoma cells), 4 h
# Procedure, shortened: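 In this assay, an IκBα–CBG68 fusion accumulates when IKK-driven degradation is blocked; native CBR normalizes for cell number. OCI-Ly3 cells were treated 4 h with compound and doxycycline, then green and red light read after Chroma-Glo addition.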
# [1] = measured here: control luc red channel unless noted
structure (smiles),measurement,setting,value
O=C(CSc1nc2c([nH]c3ccccc32)c(=O)n1-c1ccc(F)cc1)Nc1ccc2c(c1)OCCO2,AC50,[1],"1 µM [falling, full curve, poor fit]"
Cc1ccc(S(=O)(=O)N(CC(O)Cn2c3ccccc3c3ccccc32)c2cccc(C(=O)NCCO)c2)cc1 (stereo not drawn),AC50,[1],"10 µM [falling, partial curve]"
CCCCc1ccc(NC(=O)C2CCCO2)cc1 (stereo not drawn),AC50,[1],"25.1 µM [falling, single point]"
COc1cc(OC)c(N(C)C(=O)c2cc3c(s2)-c2ccccc2OC3)cc1Cl,AC50,[1],"15.8 µM [falling, partial curve]"
COc1ccc2c(CNCc3cccs3)c(C(=O)O)n(Cc3ccccc3C)c2c1,AC50,[1],"0.398 µM [falling, partial curve]"
O=C(c1nnc(Cc2ccc(Cl)cc2)o1)N1CCc2ccccc2C1,AC50,[1],"12.6 µM [falling, partial curve]"
CC(=O)C1=C(C)NC(SCC(=O)c2ccc(F)cc2)=C(C#N)C1c1ccco1 (stereo not drawn),AC50,[1],"25.1 µM [falling, partial curve]"
Cc1ccc(Sc2ccc(N3CCC(C(=O)Nc4ccc(Cl)cc4)CC3)nn2)cc1,AC50,[1],"7.94 µM [falling, full curve, poor fit]"
CN1CCN(c2ncc3nc(-c4cn(C)c5ccccc45)c(=O)n(CCC#N)c3n2)CC1,AC50,[1],"3.98 µM [falling, partial curve]"
O=C(Nc1nc2c(F)cccc2s1)c1ccc2c(c1)OCCO2,AC50,[1],"3.16 µM [falling, partial curve]"
Cc1ccc(N2C(=O)C(CC(=O)Nc3ccc(F)cc3)N(Cc3ccc4c(c3)OCO4)C2=O)cc1 (stereo not drawn),AC50,[1],"20 µM [falling, partial curve]"
Cc1ccc(CNC(=O)c2ccc3c(c2)NC(=O)C(CS(=O)(=O)Cc2cccc(F)c2)N3)cc1 (stereo not drawn),AC50,[1],"12.6 µM [falling, partial curve, poor fit]"
Cn1cccc1Cc1nnc(SCC(=O)Nc2cccc(F)c2)n1CCc1ccccc1,AC50,[1],"20 µM [falling, partial curve]"
CCOC(=O)Cn1c(=O)oc2cc(S(=O)(=O)Nc3cc(Cl)ccc3OC)ccc21,AC50,[1],"10 µM [falling, partial curve]"
Cc1c(C(=O)O)oc2c1-c1nn(Cc3ccccc3Cl)cc1CC2,AC50,[1],"12.6 µM [falling, partial curve]"
CCc1ccccc1NC(=O)c1ccc(F)c(S(=O)(=O)N2CCN(c3ccccc3OC)CC2)c1,AC50,[1],"12.6 µM [falling, partial curve]"
Cc1oc2ncn(CC(C)C)c(=O)c2c1C(=O)Nc1ccc(Cl)cn1,AC50,[1],"39.8 µM [falling, single point]"
Cc1cccc(OCCn2nnc3sc4c(c3c2=O)CCCC4)c1,AC50,[1],"2.51 µM [rising, partial curve]"
COc1ccc(-n2c(-c3ccc(Cl)cc3)cc3c2CC(C)(C)CC3=O)c(OC)c1,AC50,[1],"15.8 µM [falling, partial curve]"
CC1=C(C(=O)Nc2ccc(C)cc2C)C(c2ccc(C(C)C)cc2)n2nc(C(F)(F)F)nc2N1 (stereo not drawn),AC50,[1],"39.8 µM [falling, single point]"
O=C1C2=C(Nc3ccccc3SC2c2c(F)cccc2Cl)c2ccccc21 (stereo not drawn),AC50,[1],"7.94 µM [falling, full curve]"
O=C(NCCc1ccc(F)cc1)C(=O)NCC(c1cccs1)S(=O)(=O)c1cccs1 (stereo not drawn),AC50,[1],"0.631 µM [rising, full curve, poor fit]"
CC(C)(C)OC(=O)N1CCC(c2c(C(=O)N3CCN(C4CCCCC4)CC3)cnn2-c2cccc(Cl)c2)CC1,AC50,[1],"25.1 µM [falling, single point]"
Cc1oc2ncn(C)c(=O)c2c1C(=O)N(C)c1ccccc1F,AC50,[1],"0.01 µM [rising, full curve, poor fit]"
O=C(COc1ccccc1)Nn1cnc2ccccc21,AC50,[1],"1.26 µM [falling, full curve]"
CCCCNC(=O)c1sc2nc(C)cc(COC)c2c1-n1cccc1,AC50,[1],"12.6 µM [falling, partial curve]"
CCOC(=O)N1CCC(NC(=O)c2cnn(-c3cccc(C)c3)c2-n2cccc2)CC1,AC50,[1],"15.8 µM [falling, partial curve]"
CC(=O)N1CCCc2cc(S(=O)(=O)N3CCC(C(=O)NC4CCCCC4)CC3)ccc21,AC50,[1],"39.8 µM [rising, single point]"
Cc1ccc(C(=O)COC(=O)C(Cc2c[nH]c3ccccc23)NC(=O)c2ccc(Br)cc2)cc1 (stereo not drawn),AC50,[1],"25.1 µM [falling, single point]"
O=C(NCCCO)C(=O)Nc1c2c(nn1-c1ccc(F)cc1)CSC2,AC50,[1],"3.98 µM [rising, single point] [measured here: IkB-luc green channel]"
Cc1nnc(N2CCC(C(=O)NCc3ccc(N(C)C)cc3)CC2)c2nn(-c3ccccc3)c(C)c12,AC50,[1],"10 µM [falling, partial curve]"
COC(=O)C1=C(C)N(c2cccc(Cl)c2)C(=O)C1,AC50,[1],"3.16 µM [falling, full curve]"
COc1ccc(OC)c(CNC(=O)Cn2nc(C)c3c(C)n(-c4ccccc4)nc3c2=O)c1,AC50,[1],"25.1 µM [falling, single point]"
O=C(Nc1ccc(Cl)cc1)c1ccc2c(c1)N(Cc1ccccc1)C(=O)c1ccccc1S2(=O)=O,AC50,[1],"10 µM [falling, partial curve]"
Cc1cccc(NC(=O)c2sc3cccc(Cl)c3c2Cl)c1,AC50,[1],"25.1 µM [falling, single point]"
CNC(=O)c1c(NC(=O)c2cc(=O)c3ccccc3o2)sc2c1CCC2,AC50,[1],"0.398 µM [falling, full curve]"
CCOC(=O)c1nnn(-c2nonc2N)c1-c1cccc2ccccc12,AC50,[1],"25.1 µM [falling, partial curve]"
CCCCNC(=O)CSc1c2c(nc3ccc(Cl)cc13)CCCC2,AC50,[1],"12.6 µM [falling, partial curve]"
COC(=O)C1=C(C)N(c2ccc(F)cc2)C(=O)C1,AC50,[1],"12.6 µM [falling, partial curve]"
Clc1ccc(-c2nnn(Cc3nc4ccccc4s3)n2)cc1,AC50,[1],"39.8 µM [falling, single point]"
COc1cccc(-c2nc(S(=O)(=O)c3ccccc3)c(NCc3ccccc3)o2)c1,AC50,[1],"7.94 µM [falling, full curve]"
COc1cccc(-c2cc(C(F)(F)F)nc(NCc3ccc(F)cc3)n2)c1,AC50,[1],"12.6 µM [falling, partial curve]"
COc1ccc(C(=O)/C=C/c2cn(CC(O)CN(CC(C)C)CC(C)C)c3ccccc23)cc1OC (stereo not drawn),AC50,[1],"7.94 µM [falling, partial curve]"
O=C(Nc1nc2c(s1)CCc1ccccc1-2)c1cccs1,AC50,measured here: IkB-luc green channel,"31.6 µM [rising, single point]"
same,AC50,measured here: control luc red channel,"1 µM [falling, partial curve]"
COc1ccc(O)c(C(=O)CC(=O)c2ccc(F)cc2)c1,AC50,[1],"12.6 µM [falling, partial curve]"
CC1=C(C(=O)Nc2ccccc2)C(c2ccncc2)n2nc(SCc3ccccc3)nc2N1 (stereo not drawn),AC50,[1],"2.51 µM [falling, single point]"
CC(C)c1ccc(NC(=O)CCS(=O)(=O)c2ccc(Br)s2)cc1,AC50,[1],"15.8 µM [falling, partial curve]"
COc1ccc(N(CC(=O)Nc2ccc3c(c2)OCCO3)S(=O)(=O)c2c(C)noc2C)cc1,AC50,[1],"12.6 µM [falling, partial curve]"
Cc1cccc2c1-c1sc(C(=O)NCc3ccccc3Cl)cc1CO2,AC50,[1],"15.8 µM [falling, partial curve]"
COc1cccc(NC(=O)c2cc(CN3CCOCC3)on2)c1,AC50,[1],"12.6 µM [falling, partial curve]"
CSc1cccc(NC(=O)CN(C)S(=O)(=O)c2ccc3c(c2)n(C)c(=O)c(=O)n3C)c1,AC50,[1],"20 µM [falling, single point]"
COc1ccccc1N1CCN(C(=O)CSc2nc3ccccc3c(=O)n2CC2CCCO2)CC1 (stereo not drawn),AC50,[1],"12.6 µM [falling, partial curve]"
O=c1ccc2cc(S(=O)(=O)N3CCCC3)ccc2[nH]1,AC50,[1],"0.0126 µM [falling, full curve, poor fit]"
C=CCn1c(=O)[nH]c2cc(C(=O)N3CCN(c4cccc(Cl)c4)CC3)ccc2c1=O,AC50,[1],"15.8 µM [falling, partial curve]"
Cn1c(=O)cc(OCCCC(=O)Nc2ccccn2)c2ccccc21,AC50,[1],"31.6 µM [falling, partial curve]"
Fc1ccc(CNc2nc3c(-c4ccc(F)cc4)nnn3c3ccccc23)cc1,AC50,[1],"0.158 µM [falling, full curve]"
COc1cc(C(=O)NCc2ccc3c(c2)CCN3C(=O)c2ccncc2)cc(OC)c1OC,AC50,[1],"39.8 µM [falling, single point]"
Cc1ccc(NC(=O)NCCc2c(C)nn(C)c2C)c(Cl)c1,AC50,[1],"6.31 µM [rising, single point] [measured here: IkB-luc green channel]"
COCCCNC(=O)CN1C(=O)c2c(c3ccccc3n2C)C1c1ccc(OC)cc1 (stereo not drawn),AC50,[1],"15.8 µM [falling, partial curve]"
CCCCSc1ncnc2c1sc1nc(N3CCOCC3)c3c(c12)CCCC3,AC50,[1],"2.51 µM [rising, partial curve]"
Cc1[nH]nc2c1C(C(C)C)C(C#N)=C(N)O2 (stereo not drawn),AC50,[1],"12.6 µM [falling, partial curve]"
COc1cc(CN2CCc3nc(Nc4ccc5c(c4)OCCO5)ncc3C2)cc(OC)c1OC,AC50,[1],"25.1 µM [falling, partial curve, poor fit]"

# Part of the list above, bar-delimited.
structure (smiles) | measurement | setting | value
Cc1ccc(S(=O)(=O)N(CC(O)Cn2c3ccccc3c3ccccc32)c2cccc(C(=O)NCCO)c2)cc1 (stereo not drawn) | AC50 | [1] | 10 µM [falling, partial curve]
CCc1ccccc1NC(=O)c1ccc(F)c(S(=O)(=O)N2CCN(c3ccccc3OC)CC2)c1 | AC50 | [1] | 12.6 µM [falling, partial curve]
O=C1C2=C(Nc3ccccc3SC2c2c(F)cccc2Cl)c2ccccc21 (stereo not drawn) | AC50 | [1] | 7.94 µM [falling, full curve]
CCCCNC(=O)CSc1c2c(nc3ccc(Cl)cc13)CCCC2 | AC50 | [1] | 12.6 µM [falling, partial curve]
C=CCn1c(=O)[nH]c2cc(C(=O)N3CCN(c4cccc(Cl)c4)CC3)ccc2c1=O | AC50 | [1] | 15.8 µM [falling, partial curve]
